B1: BPIFB1 (protein, UniProt Q8TDL5 22-484, looked up)
BPI fold-containing family B …: TLSPTAVLILGPKVIKEKLTQELKDHNATSILQQLPLLSAMREKPAGGIPVLGSLVNTVLKHIIWLKVITANILQLQVKPSANDQELLVKIPLDMVAGFNTPLVKTIVEFHMTTEAQATIRMDTSASGPTRLVLSDCATSHGSLRIQLLHKLSFLVNALAKQVMNLLVPSLPNLVKNQLCPVIEASFNGMYADLLQLVKVPISLSIDRLEFDLLYPAIKGDTIQLYLGAKLLDSQGKVTKWFNNSAASLTMPTLDNIPFSLIVSQDVVKAAVAAVLSPEEFMVLLDSVLPESAHRLKSSIGLINEKAADKLGSTQIVKILTQDTPEFFIDQGHAKVAQLIVLEVFPSSEALRPLFTLGIEASSEAQFYTKGDQLILNLNNISSDRIQLMNSGIGWFQPDVLKNIITEIIHSILLPNQNGKLRSGVPVSLVKALGFEAAESSLTKDALVLTPASLWKPSSPVSQ
B2: PPAN (protein, UniProt Q9NQ55 1-473, looked up)
Suppressor of SWI4 1 homolog: MGQSGRSRHQKRARAQAQLRNLEAYAANPHSFVFTRGCTGRNIRQLSLDVRRVMEPLTASRLQVRKKNSLKDCVAVAGPLGVTHFLILSKTETNVYFKLMRLPGGPTLTFQVKKYSLVRDVVSSLRRHRMHEQQFAHPPLLVLNSFGPHGMHVKLMATMFQNLFPSINVHKVNLNTIKRCLLIDYNPDSQELDFRHYSIKVVPVGASRGMKKLLQEKFPNMSRLQDISELLATGAGLSESEAEPDGDHNITELPQAVAGRGNMRAQQSAVRLTEIGPRMTLQLIKVQEGVGEGKVMFHSFVSKTEEELQAILEAKEKKLRLKAQRQAQQAQNVQRKQEQREAHRKKSLEGMKKARVGGSDEEASGIPSRTASLELGEDDDEQEDDDIEYFCQAVGEAPSEDLFPEAKQKRLAKSPGRKRKRWEMDRGRGRLCDQKFPKTKDKSQGAQARRGPRGASRDGGRGRGRGRPGKRVA
B3: STAU1 (protein, UniProt O95793 2-577, looked up)
Double-stranded RNA-binding …: SQVQVQVQNPSAALSGSQILNKNQSLLSQPLMSIPSTTSSLPSENAGRPIQNSALPSASITSTSAAAESITPTVELNALCMKLGKKPMYKPVDPYSRMQSTYNYNMRGGAYPPRYFYPFPVPPLLYQVELSVGGQQFNGKGKTRQAAKHDAAAKALRILQNEPLPERLEVNGRESEEENLNKSEISQVFEIALKRNLPVNFEVARESGPPHMKNFVTKVSVGEFVGEGEGKSKKISKKNAAIAVLEELKKLPPLPAVERVKPRIKKKTKPIVKPQTSPEYGQGINPISRLAQIQQAKKEKEPEYTLLTERGLPRRREFVMQVKVGNHTAEGTGTNKKVAKRNAAENMLEILGFKVPQAQPTKPALKSEEKTPIKKPGDGRKVTFFEPGSGDENGTSNKEDEFRMPYLSHQQLPAGILPMVPEVAQAVGVSQGHHTKDFTRAAPNPAKATVTAMIARELLYGGTSPTAETILKNNISSGHVPHGPLTRPSEQLDYLSRVQGFQVEYKDFPKNNKNEFVSLINCSSQPPLISHGIGKDVESCHDMAALNILKLLSELDQQSTEMPRTGNGPMSVCGRC
B4: GBP1 (protein, UniProt P32455 1-589, looked up)
Guanylate-binding protein 1: MASEIHMTGPMCLIENTNGRLMANPEALKILSAITQPMVVVAIVGLYRTGKSYLMNKLAGKKKGFSLGSTVQSHTKGIWMWCVPHPKKPGHILVLLDTEGLGDVEKGDNQNDSWIFALAVLLSSTFVYNSIGTINQQAMDQLYYVTELTHRIRSKSSPDENENEVEDSADFVSFFPDFVWTLRDFSLDLEADGQPLTPDEYLTYSLKLKKGTSQKDETFNLPRLCIRKFFPKKKCFVFDRPVHRRKLAQLEKLQDEELDPEFVQQVADFCSYIFSNSKTKTLSGGIQVNGPRLESLVLTYVNAISSGDLPCMENAVLALAQIENSAAVQKAIAHYEQQMGQKVQLPTETLQELLDLHRDSEREAIEVFIRSSFKDVDHLFQKELAAQLEKKRDDFCKQNQEASSDRCSALLQVIFSPLEEEVKAGIYSKPGGYRLFVQKLQDLKKKYYEEPRKGIQAEEILQTYLKSKESMTDAILQTDQTLTEKEKEIEVERVKAESAQASAKMLQEMQRKNEQMMEQKERSYQEHLKQLTEKMENDRVQLLKEQERTLALKLQEQEQLLKEGFQKESRIMKNEIQDLQTKMRRRKAC
B5: CAT (protein, UniProt P04040 2-527, looked up)
Catalase: ADSRDPASDQMQHWKEQRAAQKADVLTTGAGNPVGDKLNVITVGPRGPLLVQDVVFTDEMAHFDRERIPERVVHAKGAGAFGYFEVTHDITKYSKAKVFEHIGKKTPIAVRFSTVAGESGSADTVRDPRGFAVKFYTEDGNWDLVGNNTPIFFIRDPILFPSFIHSQKRNPQTHLKDPDMVWDFWSLRPESLHQVSFLFSDRGIPDGHRHMNGYGSHTFKLVNANGEAVYCKFHYKTDQGIKNLSVEDAARLSQEDPDYGIRDLFNAIATGKYPSWTFYIQVMTFNQAETFPFNPFDLTKVWPHKDYPLIPVGKLVLNRNPVNYFAEVEQIAFDPSNMPPGIEASPDKMLQGRLFAYPDTHRHRLGPNYLHIPVNCPYRARVANYQRDGPMCMQDNQGGAPNYYPNSFGAPEQQPSALEHSIQYSGEVRRFNTANDDNVTQVRAFYVNVLNEEQRKRLCENIAGHLKDAQIFIQKKAVKNFTEVHPDYGSHIQALLDKYNAEKPKNAIHTFVQSGSHLAAREKANL
B6: BPIFA1 (protein, UniProt Q9NP55 20-256, looked up)
BPI fold-containing family A …: QFGGLPVPLDQTLPLNVNPALPLSPTGLAGSLTNALSNGLLSGGLLGILENLPLLDILKPGGGTSGGLLGGLLGKVTSVIPGLNNIIDIKVTDPQLLELGLVQSPDGHRLYVTIPLGIKLQVNTPLVGASLLRLAVKLDITAEILAVRDKQERIHLVLGDCTHSPGSLQISLLDGLGPLPIQGLLDSLTGILNKVLPELVQGNVCPLVNEVLRGLDITLVHDIVNMLIHGLQFVIKV
B7: MTCH2 (protein, UniProt Q9Y6C9 2-303, looked up)
Mitochondrial carrier homolog …: ADAASQVLLGSGLTILSQPLMYVKVLIQVGYEPLPPTIGRNIFGRQVCQLPGLFSYAQHIASIDGRRGLFTGLTPRLCSGVLGTVVHGKVLQHYQESDKGEELGPGNVQKEVSSSFDHVIKETTREMIARSAATLITHPFHVITLRSMVQFIGRESKYCGLCDSIITIYREEGILGFFAGLVPRLLGDILSLWLCNSLAYLVNTYALDSGVSTMNEMKSYSQAVTGFFASMLTYPFVLVSNLMAVNNCGLAGGCPPYSPIYTSWIDCWCMLQKEGNMSRGNSLFFRKVPFGKTYCCDLKMLI
B8: TXN (protein, UniProt P10599 2-105, looked up)
Thioredoxin: VKQIESKTAFQEALDAAGDKLVVVDFSATWCGPCKMIKPFFHSLSEKYSNVIFLEVDVDDCQDVASECEVKCMPTFQFFKKGQKVGEFSGANKEKLEATINELV
B9: SCAF11 (protein, UniProt Q99590 1-1463, looked up)
Protein SCAF11: MKKKTVCTLNMGDKKYEDMEGEENGDNTISTGLLYSEADRCPICLNCLLEKEVGFPESCNHVFCMTCILKWAETLASCPIDRKPFQAVFKFSALEGYVKVQVKKQLRETKDKKNENSFEKQVSCHENSKSCIRRKAIVREDLLSAKVCDLKWIHRNSLYSETGGKKNAAIKINKPQRSNWSTNQCFRNFFSNMFSSVSHSGESSFTYRAYCTEFIEASEISALIRQKRHELELSWFPDTLPGIGRIGFIPWNVETEVLPLISSVLPRTIFPTSTISFEHFGTSCKGYALAHTQEGEEKKQTSGTSNTRGSRRKPAMTTPTRRSTRNTRAETASQSQRSPISDNSGCDAPGNSNPSLSVPSSAESEKQTRQAPKRKSVRRGRKPPLLKKKLRSSVAAPEKSSSNDSVDEETAESDTSPVLEKEHQPDVDSSNICTVQTHVENQSANCLKSCNEQIEESEKHTANYDTEERVGSSSSESCAQDLPVLVGEEGEVKKLENTGIEANVLCLESEISENILEKGGDPLEKQDQISGLSQSEVKTDVCTVHLPNDFPTCLTSESKVYQPVSCPLSDLSENVESVVNEEKITESSLVEITEHKDFTLKTEELIESPKLESSEGEIIQTVDRQSVKSPEVQLLGHVETEDVEIIATCDTFGNEDFNNIQDSENNLLKNNLLNTKLEKSLEEKNESLTEHPRSTELPKTHIEQIQKHFSEDNNEMIPMECDSFCSDQNESEVEPSVNADLKQMNENSVTHCSENNMPSSDLADEKVETVSQPSESPKDTIDKTKKPRTRRSRFHSPSTTWSPNKDTPQEKKRPQSPSPRRETGKESRKSQSPSPKNESARGRKKSRSQSPKKDIARERRQSQSRSPKRDTTRESRRSESLSPRRETSRENKRSQPRVKDSSPGEKSRSQSRERESDRDGQRRERERRTRKWSRSRSHSRSPSRCRTKSKSSSFGRIDRDSYSPRWKGRWANDGWRCPRGNDRYRKNDPEKQNENTRKEKNDIHLDADDPNSADKHRNDCPNWITEKINSGPDPRTRNPEKLKESHWEENRNENSGNSWNKNFGSGWVSNRGRGRGNRGRGTYRSSFAYKDQNENRWQNRKPLSGNSNSSGSESFKFVEQQSYKRKSEQEFSFDTPADRSGWTSASSWAVRKTLPADVQNYYSRRGRNSSGPQSGWMKQEEETSGQDSSLKDQTNQQVDGSQLPINMMQPQMNVMQQQMNAQHQPMNIFPYPVGVHAPLMNIQRNPFNIHPQLPLHLHTGVPLMQVATPTSVSQGLPPPPPPPPPSQQVNYIASQPDGKQLQGIPSSSHVSNNMSTPVLPAPTAAPGNTGMVQGPSSGNTSSSSHSKASNAAVKLAESKVSVAVEASADSSKTDKKLQIQEKAAQEVKLAIKPFYQNKDITKEEYKEIVRKAVDKVCHSKSGEVNSTKVANLVKAYVDKYKYSRKGSQKKTLEEPVSTEKNIG
B10: AZGP1 (protein, UniProt P25311 21-298, looked up)
Zinc-alpha-2-glycoprotein: QENQDGRYSLTYIYTGLSKHVEDVPAFQALGSLNDLQFFRYNSKDRKSQPMGLWRQVEGMEDWKQDSQLQKAREDIFMETLKDIVEYYNDSNGSHVLQGRFGCEIENNRSSGAFWKYYYDGKDYIEFNKEIPAWVPFDPAAQITKQKWEAEPVYVQRAKAYLEEECPATLRKYLKYSKNILDRQDPPSVVVTSHQAPGEKKKLKCLAYDFYPGKIDVHWTRAGEVQEPELRGDVLHNGNGTYQSWVVVAVPPQDTAPYSCHVQHSSLAQPLVVPWEAS
B11: REXO4 (protein, UniProt Q9GZR2 1-422, looked up)
RNA exonuclease 4: MGKAKVPASKRAPSSPVAKPGPVKTLTRKKNKKKKRFWKSKAREVSKKPASGPGAVVRPPKAPEDFSQNWKALQEWLLKQKSQAPEKPLVISQMGSKKKPKIIQQNKKETSPQVKGEEMPAGKDQEASRGSVPSGSKMDRRAPVPRTKASGTEHNKKGTKERTNGDIVPERGDIEHKKRKAKEAAPAPPTEEDIWFDDVDPADIEAAIGPEAAKIARKQLGQSEGSVSLSLVKEQAFGGLTRALALDCEMVGVGPKGEESMAARVSIVNQYGKCVYDKYVKPTEPVTDYRTAVSGIRPENLKQGEELEVVQKEVAEMLKGRILVGHALHNDLKVLFLDHPKKKIRDTQKYKPFKSQVKSGRPSLRLLSEKILGLQVQQAEHCSIQDAQAAMRLYVMVKKEWESMARDRRPLLTAPDHCSDDA

tested on: BAF complex subunits and histone proteins; assay: Mass spectrometry proteomics of purified HA-SS18 WT and HA-SS18-SSX1 complexes (Tables 5A-5E); set-up: species or system human; conditions: HA-SS18WT_CHR_peptides: HA-SS18 WT purification from nuclease-treated solubilized chromatin (CHR), HEK-293T; label = protein identified

| Molecule | Total (peptides) | Unique (peptides) |
| --- | --- | --- |
| B1 | 7 | 7 |
| B2 | 3 | 3 |
| B3 | 3 | 3 |

same assay, conditions: HA-SS18WT_CHR_peptides: protein identified in HA-SS18 WT BAF complex purification from nuclease-treated solubilized chromatin (CHR), HEK-293T

| Molecule | Total (total peptides) | Unique (unique peptides) |
| --- | --- | --- |
| B4 | 2 | 2 |
| B5 | 2 | 2 |
| B6 | 2 | 2 |
| B7 | 2 | 2 |
| B8 | 2 | 2 |
| B9 | 2 | 2 |
| B10 | 2 | 2 |
| B11 | 1 | 1 |

Reference: US20250283871A1, “COMPOSITIONS AND METHODS FOR MODULATING THE INTERACTION BETWEEN SS18-SSX FUSION ONCOPROTEIN AND NUCLEOSOMES” (Dana-Farber Cancer Institute, Inc., priority 2020, published 2025)
